Results published in patent publication US20200284781A1, “TEST METHOD OF COMBINED TOXICITY FOR CH[…] BUTACHLOR” (priority 2019, published 2020).
Some results were stated once for a whole list of compounds, not compound by compound.

Key:
zebrafish larvae = test: Single toxicity of chlorpyrifos and butachlor to zebrafish larvae; format: in vivo
Method: (§1) H. Data processing: Calculating the LC50 value of pesticides on larvae and their 95% confidence limits by probit analysis based on the number and time of dead fish larvae, and using 95% confidence limit of LC50 as the criterion to determine whether the toxicity difference of different pesticides is significant, LC50≤0.1 mg a.i. L^−1, is hypertoxic; 0.1<LC50≤1.0 mg a.i. L^−1, is high toxicity; 1.0<LC50≤[…] a.i. L^−1, is medium toxicity; LC50>10.0 mg a.i. L^−1 is low toxicity. The maximum allowable concentration of MPC employs 100 as the protection factor, the formula is: MPC=96 h-LC50/100, to get the maximum allowable concentration of a poison.
(§2) H. Data processing: Calculating the LC50 value of pesticides on larvae and their 95% confidence limits by probit analysis based on the number and time of dead fish larvae, and using 95% confidence limit of LC50 as the criterion to determine whether the toxicity difference of different drugs is significant, LC50≤0.1 mg a.i. L^−1, is hypertoxic; 0.1<LC50≤1.0 mg a.i. L^−1, is high toxicity; 1.0<LC50≤10.0 mg a.i. L^−1, is medium toxicity; LC50>10.0 mg a.i. L^−1, is low toxicity, the maximum allowable concentration of MPC employs 100 as the protection factor, the formula is: MPC=96 h-LC50/100, to get the maximum allowable concentration of a poison. […]

Japanese medaka larvae = test: Single toxicity of chlorpyrifos and butachlor to Japanese medaka larvae; format: in vivo
Method: as §1, §2

Row | Compound | toxicity grade (zebrafish larvae) | toxicity grade (Japanese medaka larvae)
1 | CCOP(=S)(OCC)Oc1nc(Cl)c(Cl)cc1Cl [Chlorpyrifos, chlorpyrifos] | high toxicity (0.1<LC50≤1.0 mg a.i. L^−1, is high toxicity) | high toxicity (0.1<LC50≤1.0 mg a.i. L^−1, is high toxicity)
2 | CCCCOCN(C(=O)CCl)c1c(CC)cccc1CC [Butachlor, butachlor] | high toxicity (0.1<LC50≤1.0 mg a.i. L^−1, is high toxicity) | high toxicity (0.1<LC50≤1.0 mg a.i. L^−1, is high toxicity)
